# Measurements as given in PubChem BioAssay AID624415 (National Center for Advancing Translational Sciences (NCATS), 2012).
# Amino acid sequences for entries named in this document (tags omitted).
# UniProt Q9GZU1, whole entry, looked up: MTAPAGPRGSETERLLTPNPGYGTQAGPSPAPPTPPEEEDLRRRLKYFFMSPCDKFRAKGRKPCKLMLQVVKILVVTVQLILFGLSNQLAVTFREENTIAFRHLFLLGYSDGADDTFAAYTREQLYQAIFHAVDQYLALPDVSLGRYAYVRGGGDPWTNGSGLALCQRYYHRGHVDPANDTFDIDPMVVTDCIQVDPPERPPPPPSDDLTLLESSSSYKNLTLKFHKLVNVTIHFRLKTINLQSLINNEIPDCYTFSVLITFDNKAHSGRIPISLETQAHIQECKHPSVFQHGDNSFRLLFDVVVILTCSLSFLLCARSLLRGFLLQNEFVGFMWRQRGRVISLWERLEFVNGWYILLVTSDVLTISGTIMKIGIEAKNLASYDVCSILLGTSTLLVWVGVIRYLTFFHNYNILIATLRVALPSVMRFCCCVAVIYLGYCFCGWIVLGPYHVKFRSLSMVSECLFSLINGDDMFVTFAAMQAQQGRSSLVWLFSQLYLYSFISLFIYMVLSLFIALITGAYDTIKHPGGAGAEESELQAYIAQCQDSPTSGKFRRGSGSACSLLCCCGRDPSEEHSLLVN
# About 60 (0.02%) of roughly 390,000 compounds were called active. Inconclusive results, whose numbers are uncertain, are shown with a selection of clear calls. Rule as the data show it: active = activity change below about -50%; inconclusive = between about -30% and that limit; inactive = weaker than that.
# Molecular target: Mucolipin-1 (Homo sapiens) (UniProt Q9GZU1)
# Experiment: qHTS for Inhibitors of the Human Mucolipin Transient Receptor Potential 1 (TRPML1);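 also: stimulus is agonist 54-4 at its EC80 concentration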
# Conditions: TRPML1-inducible cells, Ca2+ dye fluorescence, FDSS; stronger effect = lower value; inhibition of EC80 agonist-evoked calcium signal
# Text: Mutations of human Mucolipin transient receptor potential 1 (TRPML1) cause type IV mucolipidosis (ML4), a devastating neurodegenerative disease in young children. […] Currently, there is no treatment for ML4. […] Under physiological conditions, TRPMLs regulate membrane trafficking by transducing information about PI(3,5)P2 levels into changes in juxtaorganellar Ca2+, thereby triggering membrane fusion/fission events in the late endocytic pathways (endolysosomal trafficking). In addition, TRPML1 mediates release of Fe2+ from late endosomes and lysosomes, which is essential for cellular iron metabolism. Thus, impaired ion (Ca2+ and Fe2+) homeostasis underlies lysosomal dysfunction and ML4 phenotypes. In ML4 cells, the problem is twofold. First, defective Ca2+-dependent membrane trafficking due to TRPML1-deficiency causes accumulation of lipids and other bio-materials in the lysosome. The second strike comes from the lysosomal iron overload (due to impairment of TRPML1's Fe2+ conductivity), which converts the accumulated materials into the nondegradable (resistant to lysosomal degradation) lipofuscin (also called aging pigment) in the lysosome. Lipofuscin accumulation dramatically compromises the functions of lysosomes.
# Niemann-Pick type C (NPC) disease is another lysosome storage disease (LSD) with severe neurodegeneration during the childhood. Currently, there is no cure for NPC. […] Thus, TRPML1 is likely to be an essential regulator of lysosome ion homeostasis. We specifically hypothesize that stimulating TRPML1's Fe2+/Ca2+ channel activity in the lysosome using synthetic agonists can alleviate neurodegeneration associated with ML4 or NPC.
# To this end, a high throughput screen was developed in a miniaturized format to screen against the Molecular Libraries Small Molecule Repository (MLSMR) to find small molecules that act either as inhibitors or agonist against the TRPML1 channel.
# NIH Chemical Genomics Center [NCGC]
# NIH Molecular Libraries Probe Centers Network [MLPCN]
# Assay Submitter (PI): Haoxing Xu, University of Michigan Ann Arbor
# TRPML1-DL cells are dissociated from flasks, counted and, brought up to a density of 500,000 cells per mL of media containing a 1X Tet inducer. Using a Multidrop Combi, 3 uL of this cell solution is dispensed to each well of a 1536 TC treated, black, clear bottom hi base plate for a final cell density of 1,500 cells per well. The assay plates are incubated overnight (approximately 16 hours) at 37 degrees C and 5% CO2. Using a Multidrop Combi, 2 uL of ABD Ca8 no wash dye plus quencher is added to each well. The assay plates incubate at room temperature in the dark for 45-90 minutes. The assay plate is read on the FDSS using the following protocol: 10 second baseline read, 23 nL of compounds and controls are added using 1536 pintool, agonist read for 110 seconds, 1 uL EC80 addition (4 uM final 54-4 diluted in media), antagonist read for 110 seconds.
# % is scaled to controls: 0 for no effect and ±100 for the full control effect.
row,SMILES,"activity change, negative = inhibition"
1,O=C(CNC1CCCCCC1)c1cccs1,inconclusive: -31.5%
2,C=CCNc1cnn(CC(C)=O)c(=O)c1Br,inconclusive: -35.8%
3,CC(C)C(=O)NC(=S)N(Cc1ccccc1)Cc1ccccc1,inconclusive: -32.3%
4,CCCCCCSc1ccc([C@H]2N[C@@](Cc3ccccc3)(C(=O)OC)[C@H]3C(=O)N(C)C(=O)[C@@H]23)cc1,inconclusive: -33%
5,CCCCSc1nc2sc3c(c2c(=O)[nH]1)CCC3,inconclusive: -32.5%
6,Clc1ccc(-c2cc(C3CCNCC3)[nH]n2)cc1,inactive: 4.47%
7,COc1ccc(C)cc1N(C(=O)c1snc(C(N)=O)c1N)C(C(=O)NC1CCCC1)c1ccc(F)cc1 (stereo not given),inactive: 3.34%
8,Cc1ccc(-c2c(C(=O)NNC(=S)NCC3CCCO3)csc2C)cc1 (stereo not given),inconclusive: -37.4%
9,CC(C)(C)OC(=O)NCc1ccc(CNC(=O)c2[nH]cnc2C(=O)N[C@@H](Cc2ccccc2)C(=O)OC(C)(C)C)cc1,inactive: -12.7%
10,CCOc1ccc(-c2c(C)nn3c(C)c(C(=O)NCCc4ccc(Cl)cc4)cnc23)cc1OCC,inconclusive: -30.5%
11,CCc1nc2cccnc2n1-c1ccc(CC(=O)Nc2cccc(C)c2C)cc1,inconclusive: -32.7%
12,CCOc1ccc(CN2CCN(Cc3cc4ccccc4o3)CC2CCO)cc1 (stereo not given),inactive: 3.4%
13,O=C(CSc1nnc(-c2ccc(F)cc2)n1CC1CCCO1)NCc1ccco1 (stereo not given),inconclusive: -31.6%
14,CC(C)Nc1nnc(SCC(=O)NCc2ccc3c(c2)OCO3)s1,inconclusive: -34.6%
15,Cc1ccc(C(=O)NCC(=O)NC23CC4CC(CC(C4)C2)C3)cc1,inactive: 1.02%
16,Cc1ccc(CCNC(=O)c2c(C)oc3ncn(CC(C)C)c(=O)c23)cc1,inconclusive: -36.5%
17,CCCCNC(=O)CCCCC(=O)N/N=C/c1cccc(Cl)c1,inactive: -27.4%
18,CCCN(C)C[C@@H]1OCCCC[C@@H](C)Oc2ccc(NS(=O)(=O)c3ccc(OC)cc3)cc2C(=O)N([C@H](C)CO)C[C@@H]1C,inconclusive: -37.5%
19,CCc1cccc(C)c1NC(=O)CN1C(=O)C2(SCC(=O)N2c2cccc(F)c2)c2ccccc21 (stereo not given),inconclusive: -47.7%
20,Cc1cccc(N2CCN(S(=O)(=O)c3cc(C(=O)Nc4ccc(Oc5ccccc5)cc4)ccc3F)CC2)c1C,inconclusive: -46.4%
21,O=C(CN1CCN(C(=O)c2ccccc2)CC1)Nc1ccc(Cl)cc1F,inactive: -5.69%
22,CCOc1ccc(C(=O)NCc2ccco2)cc1,inconclusive: -39.1%

# An excerpt of these results, as tab-separated lines.
row	SMILES	activity change, negative = inhibition
1	O=C(CNC1CCCCCC1)c1cccs1	inconclusive: -31.5%
2	C=CCNc1cnn(CC(C)=O)c(=O)c1Br	inconclusive: -35.8%
3	CC(C)C(=O)NC(=S)N(Cc1ccccc1)Cc1ccccc1	inconclusive: -32.3%
4	CCCCCCSc1ccc([C@H]2N[C@@](Cc3ccccc3)(C(=O)OC)[C@H]3C(=O)N(C)C(=O)[C@@H]23)cc1	inconclusive: -33%

# (listing goes on)

row,SMILES,"activity change, negative = inhibition"
1,COC(=O)c1cc(N=Nc2c(C)[nH]c3ccccc23)cc(C(=O)OC)c1,inactive: 11%
2,CCC(=O)N1CCN(c2nc3ccccc3s2)CC1,inconclusive: -31.2%
3,Cc1ccc(C)c(-n2c(SCC(=O)Nc3nnc(C)s3)nnc2-c2ccoc2C)c1,inconclusive: -36.9%
4,CSc1c(CC(=O)NCCCO)n(Cc2ccccc2)c2ccccc12,inconclusive: -33.4%
5,O=C(Nc1ccc(N2CCN(C(=O)c3ccccc3)CC2)cc1)c1cccs1,inactive: 80%
6,O=[N+]([O-])c1ccc(/C=N\NS(=O)(=O)c2ccc(F)cc2)o1,inactive: 25%
7,CCOC(=O)c1cc(S(=O)(=O)Nc2ccc(OC)cc2OC)cn1C,inconclusive: -32.3%
8,COc1ccc(OC)c(NC(=O)c2cccc(N3C(=O)C4C5C=CC(C6CC56)C4C3=O)c2)c1 (stereo not given),inactive: 18.2%
9,COc1ccc(C)cc1N(C(=O)c1ccccc1)c1nc2ccccc2s1,inactive: 11.3%
10,COC(=O)c1cc(C(=O)N2CCN(c3ncccn3)CC2)cc([N+](=O)[O-])c1,inconclusive: -48.3%
11,CNC(=O)C1Cc2c(-c3ccccc3Oc3ccccc3)ccnc2O1 (stereo not given),inconclusive: -31.2%
12,COC(=O)CC(=O)CSc1nc2cc(C(=O)NCC(C)C)ccc2c(=O)n1CCc1ccccc1,inactive: 2.71%
13,CCCCN(C(=O)c1cccc(S(=O)(=O)N2CCN(Cc3ccccc3)CC2)c1)c1ccccc1,inconclusive: -32%
14,COc1ccc(C2/C(=C(\O)c3ccc4c(c3)OCCO4)C(=O)C(=O)N2c2nc(C)c(C(C)=O)s2)cc1 (stereo not given),inactive: -10.3%
15,COc1ccccc1-c1nn(Cc2ccccc2)cc1/C=C/C(=O)O,inconclusive: -46.6%
16,N#C/C(=C\c1c(Cl)cccc1Cl)c1nc2ccccc2[nH]1,inconclusive: -30.8%
17,O=C(CC1NCCc2ccccc21)Nc1ccc(Oc2ccccc2)cc1 (stereo not given),inconclusive: -37.1%
18,CCN(CC)C(=O)c1cn(C)c(=O)c2cc(OC)c(OC)cc12,inconclusive: -30.3%
19,Cc1cc(NC(=O)c2cccn2-c2nnc(N3CCCCC3)s2)ccc1Br,inconclusive: -33%
20,Cc1cnc(C)c(N2CCN(Cc3cn(C)nc3-c3cccc(Cl)c3)CC2)n1,inactive: 8.03%
21,COc1ccc(Cl)cc1NC(=O)c1cc(S(=O)(=O)N(C)Cc2ccccc2)ccc1F,inconclusive: -36.4%
22,O=[N+]([O-])c1ccc(COn2nnc3ccccc32)cc1,inactive: 5.86%

# Another view of some results above.
row	SMILES	activity change, negative = inhibition
19	Cc1cc(NC(=O)c2cccn2-c2nnc(N3CCCCC3)s2)ccc1Br	inconclusive: -33%
20	Cc1cnc(C)c(N2CCN(Cc3cn(C)nc3-c3cccc(Cl)c3)CC2)n1	inactive: 8.03%
21	COc1ccc(Cl)cc1NC(=O)c1cc(S(=O)(=O)N(C)Cc2ccccc2)ccc1F	inconclusive: -36.4%

# (further entries)

row,SMILES,"activity change, negative = inhibition"
1,CCCS(=O)(=O)c1nc(S(=O)(=O)c2ccc(C)cc2)c(N2CCC(C)CC2)s1,inconclusive: -33.7%
2,C[C@@H]1O[C@@H](OCCC(=O)O)[C@H](O)C[C@H]1O,inconclusive: -30.5%
3,O=C(c1ccco1)N1CCN(Cc2nc(Cc3ccccc3)no2)CC1,inconclusive: -31.8%
4,Cc1ccc(-c2csc3ncnc(OCC(=O)NC(=O)NCc4ccco4)c23)cc1,inconclusive: -37.9%
5,CCc1ccc2c(c1)NC(=O)C2(C)Cc1ccc(C(F)(F)F)nc1 (stereo not given),inconclusive: -31.1%
6,COc1ccccc1C(=O)c1c(N)c(-c2nc(-c3ccccc3)cs2)c2ccccn12,inconclusive: -34.4%
7,CCc1nc2onc(C)c2c(=O)n1CC(=O)O,inactive: -8.95%
8,Cc1cccc(CS(=O)(=O)c2ncc(Cl)c(C(=O)Nc3nc4ccc(F)cc4s3)n2)c1,inconclusive: -30.7%
9,Cc1ccc(-n2ncc(C(=O)N3CCN(Cc4ccccc4)CC3)c2C2CCN(C(=O)OC(C)(C)C)CC2)cc1,inactive: -2.61%
10,N#C/C(C(=O)N1CCOCC1)=c1/s/c(=C\c2ccccn2)c(=O)n1-c1ccccc1,inconclusive: -34.2%
11,CCn1nc(NC(=O)c2ccccc2)c2cc3cccc(C)c3nc21,inconclusive: -30.1%
12,COc1ccc(NC(=O)Nc2ccc3c(c2)CCC3)cc1,inactive: -4.08%
13,COc1ccc(SCC(c2ccccc2)N2CCN(CC(C)C)CCC2=O)cc1 (stereo not given),inactive: 11.9%
14,CC(=O)c1cc2c(cc1N/C(=N/S(=O)(=O)c1ccccc1)c1ccc(Cl)cc1)OCO2,inconclusive: -32.3%
15,COc1cccc(C2=CC(=O)CCC2)c1,inconclusive: -33.1%
16,COc1ccc(N2CCN(C(=O)COc3ccc(S(=O)(=O)N4CCOCC4)cc3C)CC2)cc1,inconclusive: -30.6%
17,Fc1ccc(-c2nc(-c3cccs3)c(-c3cccs3)[nH]2)cc1,inconclusive: -30.4%
18,Cc1onc(-c2c(Cl)cccc2Cl)c1NC(=O)NNc1ccccc1,inconclusive: -31.6%
19,COc1ccc(OC)c(NC(=O)c2c(NCc3ccc(N(C)C)cc3)sc3c2CCCC3)c1,inactive: -2.94%
20,CC(C)NC(=O)COC(=O)c1ccccc1C(=O)c1ccccc1,inconclusive: -47.3%
21,CCc1cc2c3c(c(=O)oc2cc1OC(C)C(=O)O)CCCC3 (stereo not given),inconclusive: -43.8%
22,COc1cc(/C=C2\SC(=Nc3ccc(O)cc3)NC2=O)cc(OC)c1O,inactive: 38%

row,SMILES,"activity change, negative = inhibition"
1,O=C(Cn1cncn1)NCc1cc(F)ccc1F,inconclusive: -40.7%
2,CCc1ccccc1NC(=O)CN(C)C(=O)c1cc(C2CC2)nc2c1cnn2C(C)C,inconclusive: -33.7%
3,CCC(NC(C)C)C(O)c1ccc(O)c(O)c1 (stereo not given),inactive: -7.69%
4,COc1ccc(-c2nnn(CC(=O)N3CCOCC3)n2)cc1,inactive: -7.47%
5,COc1ccc(N=C2SC(C(N)=O)CC(=O)N2Cc2ccc3c(c2)OCO3)cc1 (stereo not given),inconclusive: -42.6%
6,O=C(COCc1cc(-c2cccs2)on1)N1CCN(c2cccc(Cl)c2)CC1,inconclusive: -30.7%
7,CCCCCCCNC(=O)C1(CC2CC(c3ccc(Cl)cc3)=NO2)CCN(C(=O)c2ccccc2)CC1 (stereo not given),inactive: -11.1%
8,C=CCn1c(=O)[nH]c2nc3cc(N=CN(C)C)c(C)cc3nc2c1=O,inactive: -2.77%
9,CCCNC(=O)NCCC12CC3CC(CC(C3)C1)C2,inconclusive: -32.8%
10,CC(=O)C1=C(C)OC(N)=C(C#N)C1c1ccncc1 (stereo not given),inconclusive: -37.4%
11,COc1ccccc1Cn1c(=O)c2ccccc2n2c(SCC(=O)N3CCCCC3)nnc12,active: -60.7%
12,Oc1ccccc1Nc1nc(NCc2ccco2)c2ccccc2n1,inactive: -18.4%
13,Nc1nonc1-n1nnc(C(=O)N/N=C/c2ccc(OCc3ccccc3)cc2)c1CN1CCCCC1,inactive: 3.02%
14,COC(=O)c1ccc(/C=C2\Oc3ccccc3NC2=O)cc1,inactive: -5.02%
15,COc1cc(Cl)c(C)cc1NC(=O)CCCN1C(=O)C(c2ccccc2)Oc2cccnc21 (stereo not given),inactive: 35.1%
16,CC1(C(=O)CSc2nc3ccccc3s2)CCC(=O)O1 (stereo not given),inconclusive: -31.6%
17,CSc1nnc(N2C(=O)C(O)=C(C(=O)c3ccco3)C2c2ccccc2F)s1 (stereo not given),inactive: 6.34%
18,N#Cc1c2ncn(CC(=O)c3ccc(Br)cc3)c(=O)c2c2n1CCC2,inconclusive: -31.2%
19,CCOC(=O)c1ccc(NC(=O)c2ccc3c(c2)c(C)c(C)n3Cc2ccc(F)cc2)cc1,inconclusive: -38.2%
